Measurements: publication PMC7819943, “Rice protein-binding microarrays: a tool to detect cis-acting elements near promoter regions in rice”
Some of the results follow.

By UniProt entry, the sequences of proteins in these tests, tags left out.
UniProt Q0JBA9, entry or part of it: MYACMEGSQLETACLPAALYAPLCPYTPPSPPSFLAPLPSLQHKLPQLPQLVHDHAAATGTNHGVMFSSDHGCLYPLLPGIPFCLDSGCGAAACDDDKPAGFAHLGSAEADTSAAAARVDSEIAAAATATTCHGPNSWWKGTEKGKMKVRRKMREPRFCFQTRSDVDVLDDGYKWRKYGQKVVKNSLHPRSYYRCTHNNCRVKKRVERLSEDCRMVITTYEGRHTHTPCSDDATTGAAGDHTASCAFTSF

The sequences below were run against OsWRKY34 (Oryza sativa, UniProt Q0JBA9 1-250) (assay: protein-binding microarray (RPBM); PBS, 2% BSA, 51.3 ng/ul salmon testes DNA, 50 uM zinc acetate, 200 nM TF, 25 C, 1 h; high values mean tight binding). Conditions: protein: recombinant; tags: N-terminal polyhistidine and DsRed monomer fusion (pET32a); label: CyDye5-dUTP incorporated in the synthesized complementary strand; 3' TTTTT single-stranded linker to array surface; dsDNA, one strand shown.
Method in brief: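 Transcription factors were made in E. coli BL21-CodonPlus as N-terminal fusions to a polyhistidine tag and DsRed, then purified on Ni–NTA. After primer extension with Cy5-dUTP and blocking with 2% BSA, a custom Agilent array was exposed for 1 h at 25 °C to 200 nM protein in PBS, 2% BSA, salmon testes DNA and 50 µM zinc acetate. Washed arrays were scanned on an Axon 4000B, and the binding signal is per-feature fluorescence intensity in arbitrary units.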

| Sequence | binding signal |
| --- | --- |
| TTGGTTTCTGCCTCGCCAGCTTCAACTACTCTCCTCCAGGCGGAGTCACCTAGTGCAG | 9010 fluorescence intensity (a.u.) |
| AAGTCGGCCACCATCGCAGCAGCATGTAGTATTCATTTCTCGGAGTCACCTAGTGCAG | 8170 fluorescence intensity (a.u.) |
| AAGTTTGTGACAGCATATTATCATCCCAAGTTCCAGTATACGGAGTCACCTAGTGCAG | 8130 fluorescence intensity (a.u.) |
| GGTTTGTATCTTTCACTTTCTGTTCACTATGGATGTATTACGGAGTCACCTAGTGCAG | 10600 fluorescence intensity (a.u.) |
| CAAATCTACTACTACTACATATGAAGACCATGGGTTCATGCGGAGTCACCTAGTGCAG | 9470 fluorescence intensity (a.u.) |
| GCCTATCTTAATACTACCAGCTTTCCATCTCAAACCCAGTCGGAGTCACCTAGTGCAG | 11300 fluorescence intensity (a.u.) |
| GATCTTCTCGCAGCAGTTTCAGCACAGCTCTCCAGGTCTACGGAGTCACCTAGTGCAG | 10700 fluorescence intensity (a.u.) |
| CTCGGCCCATATATTTGTCTTGGCACAGGCGCTCAACTGGCGGAGTCACCTAGTGCAG | 8070 fluorescence intensity (a.u.) |
| GCAACACAACGCGCTCGCCTCGCCTCGCCCCGATCGGTGGCGGAGTCACCTAGTGCAG | 8670 fluorescence intensity (a.u.) |
| ACTTCACTCTCTCTCTCTCTCTCTCTCTCGTGCGCCGCGCCGGAGTCACCTAGTGCAG | 16300 fluorescence intensity (a.u.) |
| AGTTTTGTTTCTTTCCTGTTCACAGTTCACCTTTGCCTTTCGGAGTCACCTAGTGCAG | 12400 fluorescence intensity (a.u.) |
| GTCCCTAAATATTTGACGCCGTTGACTTTTTTAAACATGTCGGAGTCACCTAGTGCAG | 28500 fluorescence intensity (a.u.) |
| GATTATCCGGCCACGCCCTGCCACAATTCAGCTCGAATTCCGGAGTCACCTAGTGCAG | 11600 fluorescence intensity (a.u.) |
| TCCGTTTCGAAATGCTTGACGCCGTTGACTTTTTTAAACACGGAGTCACCTAGTGCAG | 19400 fluorescence intensity (a.u.) |
| GGTATAGGGGTCGGTTGTTTTTATTGGTGCCGACCAATAGCGGAGTCACCTAGTGCAG | 8420 fluorescence intensity (a.u.) |
| GTTCCATATATTTTAGCACATCTGTAGCACACAACACATACGGAGTCACCTAGTGCAG | 11300 fluorescence intensity (a.u.) |
| TACATATTGATCTATCTTGCCAATTTTTTTGAAAATTTTTCGGAGTCACCTAGTGCAG | 9440 fluorescence intensity (a.u.) |
| GCCGTCCTGGCGTACCTGTCCGTGCCCAGCCTCATCGAGCCGGAGTCACCTAGTGCAG | 8510 fluorescence intensity (a.u.) |
| CAATCTCCATAGGTTGGTCTCACACGCTCCTCATCCTCTCCGGAGTCACCTAGTGCAG | 11000 fluorescence intensity (a.u.) |
| ATATTATAATTTGTTTTTATTTTTTCCAGTCAAACTTCTTCGGAGTCACCTAGTGCAG | 8220 fluorescence intensity (a.u.) |
| TCCTCTGTGTCCAAAAGTTGCAACTCCTCCACCCTTTCTTCGGAGTCACCTAGTGCAG | 8730 fluorescence intensity (a.u.) |
| CTCTTGCCGCGCGCATCAAACGCGATACATCGATCTCCTCCGGAGTCACCTAGTGCAG | 8090 fluorescence intensity (a.u.) |
| GCTCTTGCTAATTTTTCTCCAAAATCTCTATAGAATTTTCCGGAGTCACCTAGTGCAG | 9290 fluorescence intensity (a.u.) |
| TTTTTTGGCCAGCGGTTGTTGTTTGCCTTTTTTTTTTTTTCGGAGTCACCTAGTGCAG | 9500 fluorescence intensity (a.u.) |
| GACGAATGGTCAAACATTGGTTAAAAAGTCAACGGCGTTACGGAGTCACCTAGTGCAG | 10100 fluorescence intensity (a.u.) |
| GCGCCCCAACTTCCAACTCACAGTTCCTCCTCGTCATTCACGGAGTCACCTAGTGCAG | 8280 fluorescence intensity (a.u.) |
| GACTATTCTTGGGGTATAACCTTCTTATATTATTTTAATTCGGAGTCACCTAGTGCAG | 9920 fluorescence intensity (a.u.) |

Part of the list above, as tab-separated lines.
Sequence	binding signal
AAGTCGGCCACCATCGCAGCAGCATGTAGTATTCATTTCTCGGAGTCACCTAGTGCAG	8170 fluorescence intensity (a.u.)
GCTCTTGCTAATTTTTCTCCAAAATCTCTATAGAATTTTCCGGAGTCACCTAGTGCAG	9290 fluorescence intensity (a.u.)

The list continues.

| Sequence | binding signal |
| --- | --- |
| CATCGGGTTCATGTTCCTCGTCAGTTTTGTTGGGCTATTTCGGAGTCACCTAGTGCAG | 8620 fluorescence intensity (a.u.) |
| TTCGGTTGGGTGGAGGAAGCGCGGGTGAAAAAGGTGGGGACGGAGTCACCTAGTGCAG | 10600 fluorescence intensity (a.u.) |
| TTCTGTCTTCTAGTTCATTTTCCAGATTCTACATCTATAGCGGAGTCACCTAGTGCAG | 8180 fluorescence intensity (a.u.) |
| TGTGTCTTGATTAATTTTCTGTGAGCTCTTCATCTGGTCTCGGAGTCACCTAGTGCAG | 9200 fluorescence intensity (a.u.) |
| CAGCTGGTCACCCGTCTGCTATTTAAGCGATCTCCCGCACCGGAGTCACCTAGTGCAG | 8910 fluorescence intensity (a.u.) |
| TGACCTATTTGATGAGCCTACTTGCCAATTATCGTAGCTTCGGAGTCACCTAGTGCAG | 8320 fluorescence intensity (a.u.) |
| GACATATCATATCTGGTGTTGCCTTTCAGGGACGAAATTTCGGAGTCACCTAGTGCAG | 8280 fluorescence intensity (a.u.) |
| GTTTATTTTCTTCGGAATTTCAGTTAGCATGTATTATTTTCGGAGTCACCTAGTGCAG | 12100 fluorescence intensity (a.u.) |
| CCCACCACCACCACCACCACCATCACCTCATCTATCCGCGCGGAGTCACCTAGTGCAG | 10300 fluorescence intensity (a.u.) |
| GCCTCTCCTCACCCACTCCGCTCTCCGCTCCATTAAACCCCGGAGTCACCTAGTGCAG | 8450 fluorescence intensity (a.u.) |
| GTTCCTTACTCAATTCTCCATCACCATCCCATCAAAATTCCGGAGTCACCTAGTGCAG | 8990 fluorescence intensity (a.u.) |
| TTGTTAAGTCTAAGGTCTCCGTCGTTTGGCTTATTTCCTACGGAGTCACCTAGTGCAG | 8970 fluorescence intensity (a.u.) |
| GAATTTGGCTAGGTTGTACTCTTTTTTTCCTTGCATAAGTCGGAGTCACCTAGTGCAG | 8720 fluorescence intensity (a.u.) |
| AGACCCATTTCGTCCATGCATTGATACTAAACAATCCAACCGGAGTCACCTAGTGCAG | 8140 fluorescence intensity (a.u.) |
| GCAGCAAACGACTACTTTCTTTCTATGCGTAACTTTTTTTCGGAGTCACCTAGTGCAG | 8330 fluorescence intensity (a.u.) |
| TTAGTTCAGCGTTTGCCCTGTATTTATGTTGGCATGCCACCGGAGTCACCTAGTGCAG | 8220 fluorescence intensity (a.u.) |
| CTTGAGGTCATCCCTGTCATTGATCTCTACAAGTTCGAGCCGGAGTCACCTAGTGCAG | 10400 fluorescence intensity (a.u.) |
| TACTGGGGAATCGGTGGTGGTGGCGGCGGCGGTGGCGGCGCGGAGTCACCTAGTGCAG | 9690 fluorescence intensity (a.u.) |
| GCCGTTTCTTCTTTCTTTTTTTTTTCCGTGTGTGTCGTTTCGGAGTCACCTAGTGCAG | 16600 fluorescence intensity (a.u.) |
| GGGGAAATCGCTACCTAATCTGGCCTAACCGAGGTAATTACGGAGTCACCTAGTGCAG | 9030 fluorescence intensity (a.u.) |
| CATGCTGGCCTATGTGGGTCCCACCATTTTTAATTTTTTTCGGAGTCACCTAGTGCAG | 8140 fluorescence intensity (a.u.) |
| TGTTCATATGCTATACTCCTGTAATTGTAATCCTCCATACCGGAGTCACCTAGTGCAG | 9160 fluorescence intensity (a.u.) |
| CACTAAACGGCCAAAATCTTCCATCGTATAGTTACGTCACCGGAGTCACCTAGTGCAG | 8410 fluorescence intensity (a.u.) |
| AGATTGAAACTTATCTCCTTGTCGCCTCGTCATGGTGGGGCGGAGTCACCTAGTGCAG | 8590 fluorescence intensity (a.u.) |
| TAATCATACTATTGCACCAACCGTTGCTGCCCATTTGCATCGGAGTCACCTAGTGCAG | 8310 fluorescence intensity (a.u.) |
| TCAGTGACCGGTTCTTTTTTCCCAATGTCTCACTCACGGTCGGAGTCACCTAGTGCAG | 12100 fluorescence intensity (a.u.) |
| CGGTTGCTCCTTTGCCTAATCACTCAATTCCAGTAACTTTCGGAGTCACCTAGTGCAG | 8760 fluorescence intensity (a.u.) |

A few values from the results shown:
In binding signal, CTCGGCCCATATATTTGTCTTGGCACAGGCGCTCAACTGGCGGAGTCACCTAGTGCAG is listed with 8070 fluorescence intensity (a.u.)
In binding signal, TTGTTAAGTCTAAGGTCTCCGTCGTTTGGCTTATTTCCTACGGAGTCACCTAGTGCAG is listed with 8970 fluorescence intensity (a.u.)
